# Experimental data taken from patent US7465719B2, “Carbamic acid compounds comprising an ester or ketone linkage as HDAC inhibitors” (Topotarget UK Limited, priority 2003, dated 2008).
# Tested on: K11 (HPV E7 transformed human keratinocyte line)
# Assay: Secondary assay: cell proliferation WST-1, K11
# Format: cell-based
# Conditions: K11 cells, 48 hours, read-out: Cell Proliferation Inhibition WST-1 (IC50 unless otherwise specified) K11
# Protocol: Compounds with HDAC inhibition activity, as determined using the primary assay, were subsequently evaluated using secondary cell-based assays. […] Assay Method
# Cells were plated in 96-well plates at 3-10×10^3 cells/well in 100 μL of culture medium. The following day, different concentrations of candidate compounds were added and the cells incubated at 37° C. for 48 hours. Subsequently, 10 μL/well of WST-1 reagent was added and the cells reincubated for 1 hour. After the incubation time, absorbance was measured.
# WST-1 is a tetrazolium salt which is cleaved to formazan dye by cellular enzymes. An expansion in the number of viable cells results in an increase in the overall activity of mitochondrial dehydrogenases in the sample. This augmentation in the enzyme activity leads to an increase in the amount of formazan dye formed, which directly correlates to the number of metabolically active cells in the culture. The formazan dye produced is quantified by a scanning multiwell spectrophotometer by measuring the absorbance of the dye solution at 450 nm wavelength (reference wavelength 690 nm).
# IC50 values were calculated using the software package Prism 3.0 (GraphPad Software Inc., San Diego, Calif.), setting top value at 100 and bottom value at 0.
structure (smiles),measurement,value
"O=C(CCCCCCC(=O)Nc1ccccc1)NO [SAHA, Suberoylanilide Hydroxamic Acid, reference compound]",IC50,6.82 µM
